Source: PMC5008356
Results are given in words; binding and its absence hold for the method and conditions named. Binding seen in cells or lysates may run through a third protein. Some entries that bind do so weakly or less than the wild type.

Sequences of proteins named here, by UniProt entry; tags and fusion partners are left off. Residues count along the entry.
UniProt Q04206: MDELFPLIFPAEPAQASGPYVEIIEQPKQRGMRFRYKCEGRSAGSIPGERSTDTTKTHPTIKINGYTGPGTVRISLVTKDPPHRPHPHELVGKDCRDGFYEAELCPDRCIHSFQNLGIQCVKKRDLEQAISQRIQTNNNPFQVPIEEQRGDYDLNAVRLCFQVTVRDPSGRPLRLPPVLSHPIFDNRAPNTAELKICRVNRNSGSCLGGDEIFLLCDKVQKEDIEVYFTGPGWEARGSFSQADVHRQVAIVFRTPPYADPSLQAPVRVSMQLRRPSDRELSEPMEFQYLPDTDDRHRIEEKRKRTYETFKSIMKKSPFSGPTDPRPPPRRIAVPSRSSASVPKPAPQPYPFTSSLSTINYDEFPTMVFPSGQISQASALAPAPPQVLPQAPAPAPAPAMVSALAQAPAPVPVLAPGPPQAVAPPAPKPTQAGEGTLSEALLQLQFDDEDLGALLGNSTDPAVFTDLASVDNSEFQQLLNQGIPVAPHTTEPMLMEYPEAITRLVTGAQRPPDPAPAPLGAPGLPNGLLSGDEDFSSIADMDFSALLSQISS
UniProt P63165, residues 1-97: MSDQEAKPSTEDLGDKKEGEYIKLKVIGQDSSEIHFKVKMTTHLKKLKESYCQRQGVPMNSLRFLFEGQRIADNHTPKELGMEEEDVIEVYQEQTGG

Key:
[1] = molecular target: p65 (human (endogenous in SMMC7721)) (UniProt Q04206); test: co-IP; whole cell lysates of SMMC7721 cells 24 hours after transfection with GFP-SUMO1 and myc-UBC9; untreated, or treated with 10 ng/ml TNF-α for 30 min or OGD for 150 min; anti-p65 antibody on Protein A agarose, 4 °C; lysis buffer 50 mM HEPES, 150 mM NaCl, 2 mM EGTA, 0.1% Triton X-100, pH 7.4, 20 mM NEM; blot with anti-SUMO1; isotype IgG as negative control
[2] = molecular target: p65 (human (endogenous in HCC tumor tissue)) (UniProt Q04206); test: co-IP; lysates of tumor tissues of HCC patients; anti-p65 antibody on Protein A agarose, 4 °C; lysis buffer 50 mM HEPES, 150 mM NaCl, 2 mM EGTA, 0.1% Triton X-100, pH 7.4, 20 mM NEM; blot with anti-SUMO1; isotype IgG as negative control

Substance	binding [1]	binding [2]
GFP-SUMO1 (from UniProt P63165 1-97)	binds	–
Small ubiquitin-related modifier 1 (from UniProt P63165 1-97)	–	binds
